The source of these data is patent US12322837B2, “Electrochemical reduction of halogenated compounds comprising a haloalkane” (Massachusetts Institute of Technology, priority 2021, dated 2025).

The nature of series [1]: Galvanostatic discharge of Swagelok-type Li cells with 0.1 M fluoro-aromatic reactant in LiClO4/DMSO. The note with it: for discharge potential: 0.1 M reactant in DMSO electrolyte; for discharge voltage, single plateau: 0.1 M R-Ph-SF5/0.1 M LiClO4/DMSO, Ketjen Black.
Series [2] can be described thus: Galvanostatic discharge of Li-NO2-Ph-SF5 cells at high catholyte concentration.
Series [3] is described as follows: Shelf-life tests for Li-NO2-Ph-SF5 cells.
Series [4] is described as follows: Rechargeability of Li-NO2-Ph-SF5 cells (galvanostatic cycling). The note with it: for reversible capacity (up to): EC/DMC.
Series [5] in a line: Na—NO2-Ph-SF5 cell discharge and cycling. The note with it: for discharge voltage: 4 M.
Series [6] in a line: Ca-NO2-Ph-SF5 cell discharge. The note with it: 0.04 mA/cm^2, 50° C.

`N#Cc1ccccc1C=CC(F)(F)C(F)(F)C(F)(F)C(F)(F)C(F)(F)C(F)(F)F` [Ph-CN-C6 (o)] came in with a discharge potential in series [1] (50° C.) of 2.5 V.

For the compound `N#Cc1ccc(C=CC(F)(F)C(F)(F)C(F)(F)C(F)(F)C(F)(F)C(F)(F)C(F)(F)C(F)(F)F)cc1` [Ph-CN-C8 (p)], in series [1] (0.1 M, 50° C.), the gravimetric attainable capacity was 748 mAh/greactant and the “specific energy (normalized to weight of active materials, Li+liquid reactant)” value stood at 1785 Wh/kgreactant.

Consider `FC(F)(F)C(F)(F)C(F)(F)C(F)(F)C(F)(F)C(F)(F)C=Cc1cccnc1` [Py-C6], for which the “increase of discharge potential on changing benzene to pyridine (from Ph-H-C6)” value in series [1] (0.1 M, 50° C.) is −0.1 V.

For the compound `O=[N+]([O-])c1ccc(S(F)(F)(F)(F)F)cc1` [NO2-Ph-SF5, 4-Nitrophenylsulfur pentafluoride], in series [1] (0.1 M, 50° C.), the average voltage is recorded as 2.6 V; the gravimetric attainable capacity came out at 840 mAh/greactant; the “specific energy (normalized to weight of active materials, Li+liquid reactant)” value was determined as 2190 Wh/kgreactant. In addition, in series [1] (40 μA/cm^2, 50° C.), the “capacity of first region” value is on record as approximately 5 e^− per molecule, the “capacity of second region” value is approximately 3 e^− per molecule, the “share of first region in total capacity” value is reported as more than 60% and the “total electron transfer (calculated based on capacity)” value is listed as 8 e^−. In series [1] (40 μA/cm^2, 50° C.), the “voltage of first flat plateau” value came out at 2.9 V. Moreover, the “gas evolution during discharge (pressure transducer)” value in series [1] (150 μL 0.1 M NO2-Ph-SF5/0.1 M LiClO4/DMSO, KB, 40 μA·cm^−2, 50° C.) is on record as “negligible gas evolution”. Further, the attainable capacity in series [2] (1.0 M, 40 μA/cm^2, 50° C.) is reported as 818 mAh·g—NO2-Ph-SF5^−1. The same compound came in with an attainable capacity in series [2] (2.0 M, 40 μA/cm^2, 50° C.) of 786 mAh·g—NO2-Ph-SF5^−1. This compound also came in with a sub-stack capacity in series [2] (3 M, 0.1 mA·cm^−2) of 292 mAh·gsub-stack^−1. This compound also returned a sub-stack capacity in series [2] (4 M, 0.1 mA·cm^−2) of 362 mAh·gsub-stack^−1. For the same compound, the “sub-stack capacity (rate capability)” value in series [2] (4.0 M, 50° C., 0.3-1.0 mA·cm^−2 (0.01 C-0.04 C)) is approximately 362 mAh·gsub-stack^−1. The “sub-stack gravimetric energy at low power” value in series [2] (4 M, at ˜15 W·kgsub-stack^−1) is approximately 1000 Wh·kgsub-stack^−1. In addition, in series [2] (4.5 M, 0.1 mA·cm^−2), the maximum gravimetric energy came out at 1085 Wh·kgsub-stack^−1. Also, the attained capacity in series [2] (5.0 M, 40 μA/cm^2, 50° C.) came to 544 mAh·gNO2-Ph-SF5^−1. Also, in series [2] (increasing between 1.0 and 5.0 M, 40 μA/cm^2, 50° C.), the areal capacity is 5.8-19.1 mAh-cm^−2. The “capacity loss upon discharge after rest” value in series [3] (as-assembled cells rested 30 days at 50° C., 4 M) was “no capacity loss”. Further, the “voltage fade upon interruption at partial depth-of-discharge” value in series [3] (resting for 10-30 days) is listed as “negligible voltage fade”. Besides, the “capacity in second discharge” value in series [4] (0.1 M, DMSO, 1.9-3.9 V vs. Li/Li^+, 0.04 mA/cm^2, 50° C.) is 0.26 mAh/cm^2. Further, in series [4] (0.1 M, DMSO, 50° C.), the “capacity in second discharge” value is recorded as 2.2 e^−/molecule and the “capacity in third discharge” value is reported as −1.3 e/molecule. For the same compound, the “reversible capacity (up to)” value in series [4] (0.1 M, 1.5-4.6 V vs. Li/Li^+, 50° C.) is given as “up to 0.47 mAh/cm^2”. The “reversible capacity (up to)” value in series [4] (0.1 M, 50° C.) is reported as not above 3.9 e/molecule. Further, the “partially reversible capacity, lower voltage region” value in series [4] (second and third discharge) is given as 2-3 e/molecule. In addition, the “capacity of second discharge” value in series [5] (0.1 M, EC/DMC, 0.02 mA/cm^2, RT) is given as 380 mAh/gNO2-Ph-SF5. In series [5] (0.1 M, EC/DMC, 0.3 mA/cm^2, RT), the “capacity of initial discharge” value is recorded as 441 mAh/gNO2-Ph-SF5. For the same compound, in series [5] (0.1 M, EC/DMC, RT), the “capacity of third discharge” value is listed as more than 200 mAh/g/gPh-NO2-SF5, the reversible capacity is on record as approximately 200 mAh/gPh-NO2-SF5 and the “total capacity of the two discharges” value was 821 mAh/gPh-NO2-SF5. The same compound gave a discharge capacity in series [5] (4 M NO2-Ph-SF5/0.2 M NaTFSI in DMSO, carbon foam, 0.3 mA/cm^2, 50° C.) of 2.3 mAh/cm^2. This compound also displayed a discharge voltage in series [5] (DMSO, 0.3 mA/cm^2, 50° C.) of −2.2 V vs. Na/Na^+. The compound also came in with a discharge voltage in series [5] (EC/PC, 0.3 mA/cm^2, 50° C.) of 2.0 V vs. Na/Na^+. Also, in series [6] (4 M NO2-Ph-SF5/0.2 M CaTFSI/DMSO), the total capacity is reported as 6.5 mAh/cm^2. This compound gave an initial discharge voltage in series [6] (4 M) of 0.8 V vs. Ca/Ca^2+.

For `FS(F)(F)(F)(F)c1ccccc1` [Ph-SF5], in series [1] (40 μA·cm^−2, 50° C.), the “discharge voltage, single plateau” value is recorded as −2.5 V vs. Li/Li^+.

Take `FS(F)(F)(F)(F)c1ccc(I)cc1` [Ph-I—SF5]: the “discharge voltage, single plateau” value in series [1] (40 μA·cm^−2, 50° C.) is reported as −2.5 V vs. Li/Li^+.

Consider `O=[N+]([O-])c1ccccc1C=CC(F)(F)C(F)(F)C(F)(F)C(F)(F)C(F)(F)C(F)(F)C(F)(F)C(F)(F)F` [Ph-NO2—C8 (o)], for which, in series [1] (0.1 M, 50° C.), the gravimetric attainable capacity amounted to 681 mAh/greactant and the “specific energy (normalized to weight of active materials, Li+liquid reactant)” value was found to be 1700 Wh/kgreactant.

Regarding `O=[N+]([O-])c1ccccc1C=CC(F)(F)C(F)(F)C(F)(F)C(F)(F)C(F)(F)C(F)(F)F` [Ph-NO2—C6 (o)], the discharge potential in series [1] (50° C.) is reported as 2.6 V. Besides, in series [1] (0.1 M, 50° C.), the gravimetric attainable capacity was determined as 642 mAh/greactant and the “specific energy (normalized to weight of active materials, Li+liquid reactant)” value worked out at 1600 Wh/kgreactant.

In series [1] (50° C.), `FC(F)(F)C(F)(F)C(F)(F)C(F)(F)C(F)(F)C(F)(F)C=Cc1ccccc1` [Ph-H-C6] yielded a discharge potential of 2.1 V.
